Data reported in PubChem BioAssay AID1030 (National Center for Advancing Translational Sciences (NCATS), 2008).
Among all 220,000 compounds or so, about 16,000 (7.3%) were called active. These results got no clear call from the source, so the numbers are uncertain. Calls come from the whole dose curve; as a rule, active = well fitted inhibition curve with a large enough effect (not every such curve was filed as active); inconclusive = small, poorly fitted or top-dose-only effect, or another doubt; inactive = no such curve, though single readings can be large or run the other way.

Protein sequences, listed by entry. Tags and fused reporters are not part of them.
UniProt P00352, whole entry: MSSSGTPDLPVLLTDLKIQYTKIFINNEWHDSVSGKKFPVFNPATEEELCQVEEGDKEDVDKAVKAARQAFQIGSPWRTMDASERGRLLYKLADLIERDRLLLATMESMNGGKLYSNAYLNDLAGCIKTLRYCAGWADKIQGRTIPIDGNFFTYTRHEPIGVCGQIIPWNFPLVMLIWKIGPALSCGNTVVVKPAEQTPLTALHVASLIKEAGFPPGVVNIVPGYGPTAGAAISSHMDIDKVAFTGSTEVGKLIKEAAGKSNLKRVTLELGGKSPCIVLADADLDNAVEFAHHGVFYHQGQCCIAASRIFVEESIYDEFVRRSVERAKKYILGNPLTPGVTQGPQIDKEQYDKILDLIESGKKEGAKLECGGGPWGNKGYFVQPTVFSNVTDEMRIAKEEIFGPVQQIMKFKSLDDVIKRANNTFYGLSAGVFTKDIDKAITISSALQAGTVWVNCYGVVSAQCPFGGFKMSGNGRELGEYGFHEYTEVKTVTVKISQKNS

molecular target: Aldehyde dehydrogenase 1A1 (Homo sapiens) (UniProt P00352); test: qHTS Assay for Inhibitors of Aldehyde Dehydrogenase 1 (ALDH1A1); details: Purified ALDH1A1, NADH fluorescence, propionaldehyde substrate
Potency is the fitted concentration of half-maximal effect.

Compound | Potency
COc1ccc(NC2CCN(CCc3ccccc3)CC2)c(OC)c1 | inconclusive: 28.2 µM
CCOc1ccc(C)cc1CN(CCCl)CCCl | inconclusive: 20 µM
Cc1ccc(OCC(C)C)c(CN(CCCl)CCCl)c1 | inconclusive: 35.5 µM
CC(C)c1ccc(NC2CCN(C(=O)OC(C)(C)C)CC2)cc1 | inconclusive: 37.7 µM
COc1ccc(CN(CCCl)CCCl)cc1Cl | inconclusive: 37.7 µM
O=C(OC1CN2CCC1CC2)C1c2ccccc2C=Cc2ccccc21 (stereo not drawn) | inconclusive: 39.8 µM
CCOc1ncccc1C(=O)NCC1(N2CCOCC2)CCCCC1 | inconclusive: 22.4 µM
CCCOc1ccc(C)cc1CN(CCCl)CCCl | inconclusive: 39.8 µM
